# Assay results from the supplement of paper PMC8728848.
# The other results are listed elsewhere or left out.
# Columns and labels:
# Experiment in all cases: glycan array binding signal (z-score within array); higher = stronger binding
# Settings in all cases: glycan notation: IUPAC condensed, linker removed
# Man(a1-2)Man(a1-3)Man = target: Man(a1-2)Man(a1-3)Man
# Outline: (§1)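 Glycan array data were curated from 3228 arrays in the Consortium for Functional Glycomics database and kept only where the protein sequence was available. Glycan names were converted to IUPAC-condensed notation, and columns mapping to the same glycan were averaged. The binding signal is a within-array Z-score, averaged across arrays of the same protein sequence at different concentrations or buffers and across linkers. Negative Z-scores can be read as non-binding.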
# [1] = target: Man(a1-2)Man(a1-3)[Man(a1-2)Man(a1-6)]Man
# Outline: as §1
# [2] = target: Man(a1-2)Man(a1-3)[Man(a1-2)Man(a1-6)]Man(a1-6)[Man(a1-2)Man(a1-2)Man(a1-3)]Man
# Outline: as §1
# [3] = target: Man(a1-2)Man(a1-3)[Man(a1-2)Man(a1-6)]Man(a1-6)[Man(a1-2)Man(a1-2)Man(a1-3)]Man(b1-4)GlcNAc(b1-4)GlcNAc
# Outline: as §1
# [4] = target: Man(a1-2)Man(a1-3)[Man(a1-6)]Man(a1-6)[Man(a1-2)Man(a1-3)]Man(b1-4)GlcNAc(b1-4)GlcNAc
# Outline: as §1
# [5] = target: Man(a1-2)Man(a1-6)[Man(a1-3)]Man(a1-6)[Man(a1-2)Man(a1-2)Man(a1-3)]Man
# Outline: as §1
# [6] = target: Man(a1-2)Man(a1-6)[Man(a1-3)]Man(a1-6)[Man(a1-2)Man(a1-2)Man(a1-3)]Man(b1-4)GlcNAc(b1-4)GlcNAc
# Outline: as §1
# Man(a1-3)[Man(a1-6)]Man = target: Man(a1-3)[Man(a1-6)]Man
# Outline: as §1
# [7] = target: Man(a1-3)[Man(a1-6)]Man(a1-6)[Man(a1-2)Man(a1-3)]Man(b1-4)GlcNAc(b1-4)GlcNAc
# Outline: as §1
# [8] = target: Man(a1-3)[Man(a1-6)]Man(a1-6)[Man(a1-3)]Man
# Outline: as §1
# [9] = target: Man(a1-3)[Man(a1-6)]Man(a1-6)[Man(a1-3)]Man(b1-4)GlcNAc(b1-4)GlcNAc
# Outline: as §1
# [10] = target: Man(a1-3)[Man(a1-6)]Man(b1-4)GlcNAc(b1-4)GlcNAc
# Outline: as §1
# [11] = target: Man(a1-3)[Man(a1-6)]Man(b1-4)GlcNAc(b1-4)[Fuc(a1-6)]GlcNAc
# Outline: as §1
# Man(a1-6)Man = target: Man(a1-6)Man
# Outline: as §1
# Man(b1-4)GlcNAc = target: Man(b1-4)GlcNAc
# Outline: as §1
# Neu5Ac(a2-3)Gal = target: Neu5Ac(a2-3)Gal
# Outline: as §1
# [12] = target: Neu5Ac(a2-3)Gal(b1-3)GalNAc
# Outline: as §1
# [13] = target: Neu5Ac(a2-3)Gal(b1-3)GalNAc(b1-3)Gal(a1-4)Gal(b1-4)Glc
# Outline: as §1
# [14] = target: Neu5Ac(a2-3)Gal(b1-3)GalNAc(b1-4)[Neu5Ac(a2-3)]Gal(b1-4)Glc
# Outline: as §1
# [15] = target: Neu5Ac(a2-3)Gal(b1-3)GalNAc(b1-4)[Neu5Ac(a2-8)Neu5Ac(a2-3)]Gal(b1-4)Glc
# Outline: as §1
# [16] = target: Neu5Ac(a2-3)Gal(b1-3)GalNAc6S
# Outline: as §1
# [17] = target: Neu5Ac(a2-3)Gal(b1-3)GlcNAc
# Outline: as §1
# [18] = target: Neu5Ac(a2-3)Gal(b1-3)GlcNAc(b1-2)Man
# Outline: as §1
# [19] = target: Neu5Ac(a2-3)Gal(b1-3)GlcNAc(b1-2)Man(a1-3)[GlcNAc(b1-4)][Neu5Ac(a2-3)Gal(b1-3)GlcNAc(b1-2)Man(a1-6)]Man(b1-4)GlcNAc(b1-4)GlcNAc
# Outline: as §1
# [20] = target: Neu5Ac(a2-3)Gal(b1-3)GlcNAc(b1-2)Man(a1-3)[Neu5Ac(a2-3)Gal(b1-3)GlcNAc(b1-2)Man(a1-6)]Man(b1-4)GlcNAc(b1-4)GlcNAc
# Outline: as §1
# [21] = target: Neu5Ac(a2-3)Gal(b1-3)GlcNAc(b1-3)Gal(b1-3)GlcNAc
# Outline: as §1
# [22] = target: Neu5Ac(a2-3)Gal(b1-3)GlcNAc(b1-3)Gal(b1-4)GlcNAc
# Outline: as §1
# [23] = target: Neu5Ac(a2-3)Gal(b1-3)GlcNAc(b1-3)GalNAc
# Outline: as §1
# [24] = target: Neu5Ac(a2-3)Gal(b1-3)GlcNAc(b1-4)Gal(b1-4)Glc
# Outline: as §1
# [25] = target: Neu5Ac(a2-3)Gal(b1-3)GlcNAc(b1-6)GalNAc
# Outline: as §1
# [26] = target: Neu5Ac(a2-3)Gal(b1-3)GlcNAc6S
# Outline: as §1
# [27] = target: Neu5Ac(a2-3)Gal(b1-3)[Fuc(a1-4)]GlcNAc
# Outline: as §1
# [28] = target: Neu5Ac(a2-3)Gal(b1-3)[Fuc(a1-4)]GlcNAc(b1-3)Gal(b1-3)[Fuc(a1-4)]GlcNAc
# Outline: as §1
# [29] = target: Neu5Ac(a2-3)Gal(b1-3)[Fuc(a1-4)]GlcNAc(b1-3)Gal(b1-4)[Fuc(a1-3)]GlcNAc
# Outline: as §1
# [30] = target: Neu5Ac(a2-3)Gal(b1-3)[GlcNAc(b1-6)]GalNAc
# Outline: as §1
# [31] = target: Neu5Ac(a2-3)Gal(b1-3)[Neu5Ac(a2-6)]GalNAc
# Outline: as §1
# [32] = target: Neu5Ac(a2-3)Gal(b1-3)[Neu5Ac(a2-6)]GlcNAc(b1-3)[Fuc(a1-3)[Gal(b1-4)]GlcNAc(b1-6)]Gal(b1-4)Glc
# Outline: as §1
binder,measurement,setting,value
"RbmA (Vibrio cholerae), A0A2H4NFB8 (protein) MSNFKGSIMNKRHYYLASCLALLFSTASYAEVDCELQPVIEANLSLNQNQLASNGGYISSQLGIRNESCETVKFKYWLSIKGPEGIYFPAKAVVGVDTAQQESDALTDGRMLNVTRGFWVPEYMADGKYTVSLQVVAENGEVFKANQEFVKGGDLNSLPELNGLTIDIKNQFGINSVESTGGFVPFTIDLNNGREGEAKVEFWMTAVGPDGLIIPVHSREKWMIIAGNTFSKVRGINFDKSYPAGEYTINAQVVDIVSGERVEQLMTVVKK",glycan array binding signal (z-score),Man(a1-2)Man(a1-3)Man,0.268
same,glycan array binding signal (z-score),[1],2.4
same,glycan array binding signal (z-score),[2],-0.653
same,glycan array binding signal (z-score),[3],0.213
same,glycan array binding signal (z-score),[4],-0.965
same,glycan array binding signal (z-score),[5],0.014
same,glycan array binding signal (z-score),[6],0.833
same,glycan array binding signal (z-score),Man(a1-3)[Man(a1-6)]Man,0.76
same,glycan array binding signal (z-score),[7],-0.755
same,glycan array binding signal (z-score),[8],-0.166
same,glycan array binding signal (z-score),[9],-0.909
same,glycan array binding signal (z-score),[10],-0.548
same,glycan array binding signal (z-score),[11],-0.315
same,glycan array binding signal (z-score),Man(a1-6)Man,-0.678
same,glycan array binding signal (z-score),Man(b1-4)GlcNAc,-0.294
same,glycan array binding signal (z-score),Neu5Ac(a2-3)Gal,0.218
same,glycan array binding signal (z-score),[12],0.069
same,glycan array binding signal (z-score),[13],-0.315
same,glycan array binding signal (z-score),[14],-0.785
same,glycan array binding signal (z-score),[15],-0.82
same,glycan array binding signal (z-score),[16],-0.14
same,glycan array binding signal (z-score),[17],-0.006
same,glycan array binding signal (z-score),[18],0.176
same,glycan array binding signal (z-score),[19],-0.908
same,glycan array binding signal (z-score),[20],-0.364
same,glycan array binding signal (z-score),[21],-0.516
same,glycan array binding signal (z-score),[22],-0.515
same,glycan array binding signal (z-score),[23],0.638
same,glycan array binding signal (z-score),[24],-0.341
same,glycan array binding signal (z-score),[25],-0.144
same,glycan array binding signal (z-score),[26],-0.198
same,glycan array binding signal (z-score),[27],-1.17
same,glycan array binding signal (z-score),[28],1.84
same,glycan array binding signal (z-score),[29],-1.06
same,glycan array binding signal (z-score),[30],1.15
same,glycan array binding signal (z-score),[31],0.382
same,glycan array binding signal (z-score),[32],2.23

# Some of the entries so far, bar-delimited.
binder | measurement | setting | value
RbmA (Vibrio cholerae), A0A2H4NFB8 (protein) MSNFKGSIMNKRHYYLASCLALLFSTASYAEVDCELQPVIEANLSLNQNQLASNGGYISSQLGIRNESCETVKFKYWLSIKGPEGIYFPAKAVVGVDTAQQESDALTDGRMLNVTRGFWVPEYMADGKYTVSLQVVAENGEVFKANQEFVKGGDLNSLPELNGLTIDIKNQFGINSVESTGGFVPFTIDLNNGREGEAKVEFWMTAVGPDGLIIPVHSREKWMIIAGNTFSKVRGINFDKSYPAGEYTINAQVVDIVSGERVEQLMTVVKK | glycan array binding signal (z-score) | [4] | -0.965
same | glycan array binding signal (z-score) | [15] | -0.82
same | glycan array binding signal (z-score) | [21] | -0.516
